Experimental data as given in paper PMC6365888.
These are yes or no findings as the source states them, for the method shown. Binding seen in cells or lysates may run through a third protein. Some entries that bind do so weakly or less than the wild type.

Protein sequences, listed by entry. Tags and fused reporters are not part of them. Residues count along the entry.
UniProt P02545, residues 1-646: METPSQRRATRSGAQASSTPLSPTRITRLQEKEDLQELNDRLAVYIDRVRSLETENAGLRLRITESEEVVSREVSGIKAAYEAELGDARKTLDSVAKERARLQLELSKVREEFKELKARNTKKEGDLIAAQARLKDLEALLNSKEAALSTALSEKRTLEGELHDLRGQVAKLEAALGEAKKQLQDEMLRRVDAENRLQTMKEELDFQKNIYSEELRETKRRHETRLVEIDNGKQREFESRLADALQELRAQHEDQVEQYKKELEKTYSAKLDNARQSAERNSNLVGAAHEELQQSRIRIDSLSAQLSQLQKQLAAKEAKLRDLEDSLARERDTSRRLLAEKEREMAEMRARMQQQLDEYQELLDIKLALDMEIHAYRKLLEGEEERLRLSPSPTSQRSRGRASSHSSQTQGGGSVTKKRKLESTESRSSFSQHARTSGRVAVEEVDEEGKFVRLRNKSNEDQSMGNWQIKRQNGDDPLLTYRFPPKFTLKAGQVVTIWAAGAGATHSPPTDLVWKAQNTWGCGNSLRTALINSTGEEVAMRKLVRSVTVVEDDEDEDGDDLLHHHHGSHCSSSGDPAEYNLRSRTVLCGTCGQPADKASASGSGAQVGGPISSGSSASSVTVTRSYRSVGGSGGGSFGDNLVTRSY
UniProt Q92769: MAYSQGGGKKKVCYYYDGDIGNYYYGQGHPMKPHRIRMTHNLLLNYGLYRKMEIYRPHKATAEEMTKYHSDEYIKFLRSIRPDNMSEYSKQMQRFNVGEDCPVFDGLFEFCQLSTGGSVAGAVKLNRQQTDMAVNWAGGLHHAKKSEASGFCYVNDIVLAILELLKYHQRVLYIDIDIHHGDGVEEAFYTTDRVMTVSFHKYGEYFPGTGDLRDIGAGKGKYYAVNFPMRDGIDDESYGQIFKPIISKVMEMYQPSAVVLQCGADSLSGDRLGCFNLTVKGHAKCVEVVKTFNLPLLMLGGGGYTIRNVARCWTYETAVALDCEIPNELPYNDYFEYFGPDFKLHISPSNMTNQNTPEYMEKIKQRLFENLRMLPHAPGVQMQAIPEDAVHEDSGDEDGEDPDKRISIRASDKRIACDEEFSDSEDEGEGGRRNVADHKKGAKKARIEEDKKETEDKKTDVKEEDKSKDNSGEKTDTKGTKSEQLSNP

Legend:
[1] = biological target: lamin A/C (human (endogenous in HeLa and human dermal fibroblasts)) (UniProt P02545); experiment: proximity ligation; in situ Duolink PLA on methanol-fixed human dermal fibroblasts (control and HGPS), primary antibodies overnight at 4 °C; cells untreated or treated with mevinolin, TSA, MS-275, MC1568, TSA + mevinolin or H2O2
[2] = biological target: lamin A/C (human (endogenous in HeLa and human dermal fibroblasts)) (UniProt P02545); experiment: co-IP; 700 ug lysate in high detergent IP buffer (50 mM TRIS-HCl pH 8, 250 mM NaCl, 0.1% SDS, 1% NP-40) incubated overnight with anti-lamin A/C (Novocastra), protein A/G, western blot for HDAC2; cells untreated or treated with mevinolin
[3] = biological target: FLAG-tagged wild-type lamin A (LA-WT) (UniProt P02545); experiment: co-IP; transfected HEK293 cells, 700 ug lysate in high detergent IP buffer (50 mM TRIS-HCl pH 8, 250 mM NaCl, 0.1% SDS, 1% NP-40) incubated overnight with anti-FLAG, protein A/G, western blot for endogenous HDAC2

binding [1]: binds
binding [2]: binds
binding [3]: binds
Substance: histone deacetylase 2 (HDAC2) (from UniProt Q92769 1-488) (enzyme)
